Experimental data from paper PMC10138897.
These are yes or no findings as the source states them, for the method shown. In cells and extracts the contact can be indirect. Some results given as binding are weak or reduced against the parent protein; the word gives no strength. Sequences can lack the tags named with a protein.

Chains of the proteins cited; added tags and fusions are not shown. Residues count along the entry.
UniProt P63165, residues 1-97: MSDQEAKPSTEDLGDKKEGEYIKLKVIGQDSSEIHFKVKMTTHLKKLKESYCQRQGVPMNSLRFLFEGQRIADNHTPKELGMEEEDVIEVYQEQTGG
UniProt O75925: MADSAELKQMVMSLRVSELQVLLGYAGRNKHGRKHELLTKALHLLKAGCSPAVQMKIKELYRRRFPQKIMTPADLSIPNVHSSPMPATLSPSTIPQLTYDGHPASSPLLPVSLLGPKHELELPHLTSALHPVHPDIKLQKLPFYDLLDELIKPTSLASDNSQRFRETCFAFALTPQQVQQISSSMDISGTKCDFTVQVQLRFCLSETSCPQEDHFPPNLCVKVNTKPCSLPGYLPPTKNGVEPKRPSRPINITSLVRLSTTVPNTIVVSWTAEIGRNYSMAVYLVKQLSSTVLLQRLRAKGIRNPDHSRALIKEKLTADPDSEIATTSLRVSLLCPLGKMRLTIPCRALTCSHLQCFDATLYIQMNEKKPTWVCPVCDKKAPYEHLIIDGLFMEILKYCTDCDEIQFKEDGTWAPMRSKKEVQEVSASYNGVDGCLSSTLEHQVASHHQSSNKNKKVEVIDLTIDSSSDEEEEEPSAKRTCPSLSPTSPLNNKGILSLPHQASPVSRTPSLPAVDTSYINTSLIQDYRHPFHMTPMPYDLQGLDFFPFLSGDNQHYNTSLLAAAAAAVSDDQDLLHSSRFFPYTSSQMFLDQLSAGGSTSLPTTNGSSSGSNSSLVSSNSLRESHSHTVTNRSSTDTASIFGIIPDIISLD

Target: T1, HMGXB4-HA (co-IP with SUMO1 and PIAS1) (not stated (human or zebrafish cDNA cloned)) (UniProt Q9UGU5)
T1 sequence: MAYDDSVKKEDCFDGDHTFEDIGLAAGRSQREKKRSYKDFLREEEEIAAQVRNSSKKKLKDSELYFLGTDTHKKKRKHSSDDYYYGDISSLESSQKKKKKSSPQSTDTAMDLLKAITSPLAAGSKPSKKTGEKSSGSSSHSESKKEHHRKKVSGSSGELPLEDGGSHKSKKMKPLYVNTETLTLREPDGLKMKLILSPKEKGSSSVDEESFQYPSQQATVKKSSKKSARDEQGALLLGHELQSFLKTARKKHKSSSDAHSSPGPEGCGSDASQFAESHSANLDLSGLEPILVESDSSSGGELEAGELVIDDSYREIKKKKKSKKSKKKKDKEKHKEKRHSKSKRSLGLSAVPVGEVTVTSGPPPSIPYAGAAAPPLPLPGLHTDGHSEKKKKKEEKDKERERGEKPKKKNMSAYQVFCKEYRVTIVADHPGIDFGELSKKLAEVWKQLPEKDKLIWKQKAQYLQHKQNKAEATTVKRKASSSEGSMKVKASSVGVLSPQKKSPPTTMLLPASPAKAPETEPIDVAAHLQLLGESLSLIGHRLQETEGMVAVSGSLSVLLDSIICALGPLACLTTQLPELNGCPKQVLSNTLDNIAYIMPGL
Assay: co-IP; lysate of co-transfected HeLa or HEK293 cells, precipitated with rat monoclonal anti-HA; extraction buffer Tris-HCl 50 mM pH 7.4, NaCl 150 mM, EDTA 1 mM, NP-40 1%, Na-deoxycholate 0.25%; 2 h at 4 °C; immunoblot

Row | binding | Substance
1 | binds | HIS-SUMO1 (from UniProt P63165 1-97)
2 | binds | PIAS1 (co-IP) (from UniProt O75925 1-651)
